Measurements taken from PubChem BioAssay AID504444 (National Center for Advancing Translational Sciences (NCATS), 2011).
About 7,500 (2.1%) of roughly 360,000 compounds were called active. The shares of active, inactive and inconclusive entries below differ from those in the screen. Calls follow the shape of the dose curve; as a rule, active = well fitted inhibition curve with a large enough effect; inconclusive = small, poorly fitted or top-dose-only effect, or effect the other way; inactive = flat fitted curve, though single readings scatter. Potencies beside an inconclusive call are fits to weak or partial responses and may not hold up.

Test: Nrf2 qHTS screen for inhibitors; also: nearly all actives have a fitted effect of over 60% in size
Conditions: A549 ARE-Fluc reporter, luciferase luminescence, 18-24 h; activity change, negative = inhibition: at 46 µM (top of the series)
Summary of the method: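 Nrf2 activity is the BugLite luminescence, read 15 min after reagent at room temperature, following CellTiter-Fluor cytotoxicity readout (30 min, 37C). Compound titrations were applied for 18-24 h to 5000 A549 ARE_Fluc cells/well in 5% FBS OPTI-MEM.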
% is scaled to controls: 0 for no effect and ±100 for the full control effect; potency is read from the fitted curve at half-maximal effect.

| SMILES | Potency | activity change, negative = inhibition |
| --- | --- | --- |
| Cc1nc(N2CCN(C)CC2)c2c(C)c(C(=O)Nc3ccc(C)c(F)c3)sc2n1 | inconclusive: 11.6 µM [falling, partial curve, poor fit] | – |
| Cc1cc(C)cc(NC(=O)CSc2nc3nc(C)cc(C)n3n2)c1 | inconclusive: 20.6 µM [falling, partial curve, poor fit] | – |
| CCc1ccc(Nc2n[n+](-c3ccccc3)c(-c3ccc(N(CC)CC)cc3)s2)cc1 | inconclusive: 32.6 µM [falling, single point] | – |
| Cc1ccc(OCc2cc(C(=O)N3CCC(C(O)C(C)C)CC3)no2)cc1C (configuration not stated) | inconclusive: 9.2 µM [activator, partial curve, poor fit] | – |
| NS(=O)(=O)c1ccc(CCNC(=O)CCCCCn2c(=S)[nH]c3ccc(Br)cc3c2=O)cc1 | inconclusive: 18.4 µM [falling, partial curve, poor fit] | – |
| Cc1cccc(/C=N/NC(=O)c2ccc(NC(=O)c3ccc(Cl)cc3)cc2)n1 | inconclusive: 29.1 µM [falling, partial curve, poor fit] | – |
| COc1ccc(S(=O)(=O)NC2CC(=O)N(c3ccc4c(c3)OCCO4)C2)cc1 (configuration not stated) | – | inactive: 1.14% |
| CC1Cn2c(C(=O)NCc3cccc(Br)c3)cc3cccc(c32)S1 (configuration not stated) | – | inactive: -6.33% |
| O=c1c(N2CCOCC2)nsn1Cc1ccccc1 | inconclusive: 5.17 µM [falling, partial curve, poor fit] | – |
| Cc1ccc(C(=O)O)cc1NC1(c2ccccc2)C(=O)c2ccccc2C1=O | inconclusive: 29.1 µM [activator, single point] | – |
| CCN1C(=O)c2cccc3c(S(=O)(=O)Nc4ccccc4)ccc1c23 | inconclusive: 16.4 µM [falling, partial curve] | – |
| CN(c1ccc(OCC(=O)Nc2nc3ccccc3s2)cc1)S(=O)(=O)c1ccccc1 | inconclusive: 5.17 µM [falling, full curve] | – |
| Cc1c(Cl)cccc1NC(=O)CSc1nc2ncccc2o1 | – | inactive: 5.9% |
| CCCn1nc(C(=O)NCC2COc3ccccc3O2)c2ccccc2c1=O (configuration not stated) | inconclusive: 14.6 µM [falling, partial curve, poor fit] | – |
| O=C1NC(=O)/C(=C\c2ccc(Oc3cnccn3)cc2)S1 | inconclusive: 9.2 µM [activator, partial curve] | – |
| CC(C)CNC(=O)Nc1ccc(F)c(Cl)c1 | inconclusive: 16.4 µM [activator, single point] | – |
| CCn1c(C)c(C)c2cc(C(=O)NCc3ccc(OC(C)C)cc3)ccc21 | inconclusive: 20.6 µM [activator, single point] | – |

2 entries from above, comma-delimited:
SMILES,Potency,"activity change, negative = inhibition"
Cc1cccc(/C=N/NC(=O)c2ccc(NC(=O)c3ccc(Cl)cc3)cc2)n1,"inconclusive: 29.1 µM [falling, partial curve, poor fit]",–
CCN1C(=O)c2cccc3c(S(=O)(=O)Nc4ccccc4)ccc1c23,"inconclusive: 16.4 µM [falling, partial curve]",–
